Measurements as given in patent US7939657B2, “N-substituted benzene sulfonamides” (Elan Pharmaceuticals, Inc., priority 2003, dated 2011).
Some results were stated once for a whole list of compounds, not compound by compound. At least one structure is not confirmed: it was looked up by name or label, or the drawing left a doubt.

Target: gamma secretase cleavage of NotchΔE (constitutively active rat Notch1 construct ZEDN1)
Test: Notch signaling assay for selective inhibitors of gamma secretase (4xwtCBF1 Luciferase reporter gene co-transfected with NotchΔE ZEDN1)
Type: cell-based
Conditions: 'the above assay' (reporter gene based Notch signaling assay); ranges stated as 'from about'
Text: “A presenilin-1-dependent gamma-secretase-like protease mediates release of Notch intracellular domain.” Nature 398(6727): 518-22; Mumm, J. S., E. H. Schroeter, M. T. Saxena, A. Griesemer, X. Tian, D. J. Pan, W. J. Ray and R. Kopan (2000). “A ligand-induced extracellular cleavage regulates gamma-secretase-like proteolytic activation of Notch1.” Mol Cell 5(2): 197-206; Zhang, Z., P. Nadeau, W. Song, D. Donoviel, M. Yuan, A. Bernstein and B. A. Yankner (2000). “Presenilins are required for gamma-secretase cleavage of beta-APP and transmembrane cleavage of Notch-1.” Nat Cell Biol 2(7): 463-5). Cleavage of APP by gamma secretase leads to β-amyloid synthesis. Cleavage of Notch1 by gamma secretase results in release of the Notch intracellular domain (NICD), which translocates to the nucleus and activates gene expression (Jarriault, S., C. Brou, F. Logeat, E. H. Schroeter, R. Kopan and A. Israel (1995). “Signalling downstream of activated mammalian Notch.” Nature 377(6547): 355-8; Kopan, R., E. H. Schroeter, H. Weintraub and J. S. Nye (1996). “Signal transduction by activated Notch: importance of proteolytic processing and its regulation by the extracellular domain.” Proc Natl Acad Sci USA 93(4): 1683-8; Schroeter, E. H., J. A. Kisslinger and R. Kopan (1998). “Notch-1 signalling requires ligand-induced proteolytic release of intracellular domain.” Nature 393(6683): 382-6). […]

| Compound | IC50 |
| --- | --- |
| C/C(=C\c1ccccc1)CN([C@@H]1CCCCNC1=O)S(=O)(=O)c1ccc(Cl)cc1 [Compound 85, 4-chloro-N-[(2E)-2-methyl-3-phenylprop-2-en-1-yl]-N-[(3R)-oxoazepan-3-yl]benzenesulfonamide] | 25 to 100 nM |
| COc1ccc(CN(C2CCCCNC2=O)S(=O)(=O)c2ccc(Cl)cc2)cc1 (centres unmarked) [Compound 157] | 0.1 to 25 nM |
